# Measured values: US12485161B2, “Compositions comprising sulforaphane or a sulforaphane precursor and a milk thistle extract or powder” (Nutramax Laboratories, Inc., priority 2012, dated 2025)
# At least one structure is not confirmed: it was looked up by name or label, or the drawing left a doubt.
# Test system: HepG2 cells
# Test: Glutathione levels in HepG2 cells (o-phthalaldehyde fluorescence)
# Type: cell-based, human
# Procedure: The following study was conducted to determine the effect of the combination of sulforaphane and silibinin on glutathione levels. Glutathione plays an important role in the body, as it can serve as an antioxidant, detoxifier, and immunity enhancer. Decreased levels of glutathione can cause a patient to be susceptible to oxidative stress, illness, and cancer. Therefore, an increase in glutathione levels is a beneficial effect.
# In the study, the human liver cancer cell line, HepG2 cells were treated with DMSO (vehicle control), sulforaphane (SFN), silibinin (Silib), or the combination of sulforaphane and silibinin, for 24 hours. Cell lysates were collected and glutathione levels were measured using o-phthalaldehyde (OPT) as a fluorescent reagent. FIG. 5 and FIG. 6 show the results of the study.
# In Part 1 of the study, the effect of 0.5 μM SFN was compared to various concentrations of silibinin and to the combination of 0.5 μM SFN and silibinin at various concentrations. […] An increase in glutathione levels is a beneficial effect. The results are depicted in FIG. 5.
# In Part 2 of the study, the effect of 2 μM SFN was compared to various concentrations of silibinin and to the combination of 2 μM SFN and silibinin at various concentrations. […] An increase in glutathione levels is a beneficial effect to detoxify cells. The results are depicted in FIG. 6.
compound,measurement,setting,value
"COc1cc(C2Oc3cc([C@H]4Oc5cc(O)cc(O)c5C(=O)[C@@H]4O)ccc3OC2CO)ccc1O (some centres unmarked) [Silibinin, silibinin]",Glutathione levels compared to DMSO (vehicle) control,"Part 1, 24 hours, 0.5 μM SFN, 100, 200, 300 μM Silib, FIG. 5",decreased slightly
same,Glutathione levels compared to the control,"Part 2, 24 hours, 2 μM SFN, 100, 300 μM Silib, FIG. 6",decreased slightly
